Drawing on the supplement of paper PMC10849652, this text covers log2 fold change for 37 targets.

Protein sequences, listed by entry. Tags and fused reporters are not part of them. Lines headed by an entry give the natural chain unless they say otherwise; changes in a name come on top.
UniProt P18669: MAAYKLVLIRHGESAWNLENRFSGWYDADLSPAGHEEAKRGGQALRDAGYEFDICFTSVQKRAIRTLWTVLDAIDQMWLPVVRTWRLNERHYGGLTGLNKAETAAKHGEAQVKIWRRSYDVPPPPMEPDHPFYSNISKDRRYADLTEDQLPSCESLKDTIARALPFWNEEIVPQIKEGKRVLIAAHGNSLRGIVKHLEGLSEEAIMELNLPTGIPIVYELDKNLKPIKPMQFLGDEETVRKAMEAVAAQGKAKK
UniProt Q86SE9: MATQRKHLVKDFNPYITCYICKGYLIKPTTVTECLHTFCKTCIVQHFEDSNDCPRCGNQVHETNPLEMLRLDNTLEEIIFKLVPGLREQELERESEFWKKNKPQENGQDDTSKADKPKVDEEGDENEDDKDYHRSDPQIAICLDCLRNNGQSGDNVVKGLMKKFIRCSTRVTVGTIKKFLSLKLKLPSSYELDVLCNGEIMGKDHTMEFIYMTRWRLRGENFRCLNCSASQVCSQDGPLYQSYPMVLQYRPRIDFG
UniProt Q9UHG3: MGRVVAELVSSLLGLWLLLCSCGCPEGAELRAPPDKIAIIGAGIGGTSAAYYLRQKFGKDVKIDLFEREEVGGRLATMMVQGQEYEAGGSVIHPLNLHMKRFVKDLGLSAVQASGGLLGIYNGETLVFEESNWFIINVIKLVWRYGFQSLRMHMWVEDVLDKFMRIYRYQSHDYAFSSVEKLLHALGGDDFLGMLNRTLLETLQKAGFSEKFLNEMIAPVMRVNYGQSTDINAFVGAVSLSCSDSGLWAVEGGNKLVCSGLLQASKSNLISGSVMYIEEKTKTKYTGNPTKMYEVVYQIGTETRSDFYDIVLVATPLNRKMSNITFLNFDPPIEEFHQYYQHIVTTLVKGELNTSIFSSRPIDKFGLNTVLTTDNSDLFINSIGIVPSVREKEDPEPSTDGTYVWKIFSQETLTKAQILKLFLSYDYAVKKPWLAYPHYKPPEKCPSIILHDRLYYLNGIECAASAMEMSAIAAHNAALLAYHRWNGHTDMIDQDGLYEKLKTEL
UniProt Q9H0N5: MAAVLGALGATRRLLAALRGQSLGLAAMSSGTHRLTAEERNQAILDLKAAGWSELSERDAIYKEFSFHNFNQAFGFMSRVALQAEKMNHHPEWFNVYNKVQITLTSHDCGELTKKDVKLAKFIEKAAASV
UniProt Q14554: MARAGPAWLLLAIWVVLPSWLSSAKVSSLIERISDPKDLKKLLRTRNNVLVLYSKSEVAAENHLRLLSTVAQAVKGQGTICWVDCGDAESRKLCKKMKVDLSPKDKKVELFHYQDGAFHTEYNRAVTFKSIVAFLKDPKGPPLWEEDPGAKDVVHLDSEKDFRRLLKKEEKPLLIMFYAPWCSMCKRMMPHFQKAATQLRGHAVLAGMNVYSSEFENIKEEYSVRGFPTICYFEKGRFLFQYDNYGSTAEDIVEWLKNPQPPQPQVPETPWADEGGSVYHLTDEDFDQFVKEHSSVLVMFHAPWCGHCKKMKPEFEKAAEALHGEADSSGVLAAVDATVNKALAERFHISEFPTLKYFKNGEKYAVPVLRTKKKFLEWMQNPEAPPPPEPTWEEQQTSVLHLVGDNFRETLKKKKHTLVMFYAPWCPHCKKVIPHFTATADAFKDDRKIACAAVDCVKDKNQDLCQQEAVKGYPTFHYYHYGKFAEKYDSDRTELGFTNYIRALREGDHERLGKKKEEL
UniProt P17858: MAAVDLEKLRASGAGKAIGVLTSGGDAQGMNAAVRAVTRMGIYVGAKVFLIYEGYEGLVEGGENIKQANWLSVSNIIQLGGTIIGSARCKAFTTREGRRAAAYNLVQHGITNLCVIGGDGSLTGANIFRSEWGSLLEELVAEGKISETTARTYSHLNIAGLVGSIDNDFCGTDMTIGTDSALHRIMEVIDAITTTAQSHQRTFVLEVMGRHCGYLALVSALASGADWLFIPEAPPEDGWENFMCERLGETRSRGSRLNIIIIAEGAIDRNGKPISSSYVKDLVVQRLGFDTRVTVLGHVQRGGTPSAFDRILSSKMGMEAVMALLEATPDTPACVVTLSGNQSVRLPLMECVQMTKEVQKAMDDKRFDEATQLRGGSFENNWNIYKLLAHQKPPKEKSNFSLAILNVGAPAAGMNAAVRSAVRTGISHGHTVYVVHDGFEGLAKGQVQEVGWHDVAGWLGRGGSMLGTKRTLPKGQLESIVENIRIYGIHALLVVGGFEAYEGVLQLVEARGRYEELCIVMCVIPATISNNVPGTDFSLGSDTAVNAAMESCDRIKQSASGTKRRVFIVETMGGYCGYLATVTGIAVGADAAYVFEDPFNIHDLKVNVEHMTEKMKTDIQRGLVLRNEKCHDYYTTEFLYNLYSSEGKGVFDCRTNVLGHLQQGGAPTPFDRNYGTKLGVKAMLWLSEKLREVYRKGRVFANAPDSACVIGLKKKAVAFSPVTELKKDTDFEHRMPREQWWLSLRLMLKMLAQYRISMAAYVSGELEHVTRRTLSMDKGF
UniProt H7BZJ3: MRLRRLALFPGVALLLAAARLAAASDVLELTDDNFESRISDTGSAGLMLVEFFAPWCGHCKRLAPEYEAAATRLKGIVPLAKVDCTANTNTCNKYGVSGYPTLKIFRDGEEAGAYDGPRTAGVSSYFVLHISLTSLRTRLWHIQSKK
UniProt P08237: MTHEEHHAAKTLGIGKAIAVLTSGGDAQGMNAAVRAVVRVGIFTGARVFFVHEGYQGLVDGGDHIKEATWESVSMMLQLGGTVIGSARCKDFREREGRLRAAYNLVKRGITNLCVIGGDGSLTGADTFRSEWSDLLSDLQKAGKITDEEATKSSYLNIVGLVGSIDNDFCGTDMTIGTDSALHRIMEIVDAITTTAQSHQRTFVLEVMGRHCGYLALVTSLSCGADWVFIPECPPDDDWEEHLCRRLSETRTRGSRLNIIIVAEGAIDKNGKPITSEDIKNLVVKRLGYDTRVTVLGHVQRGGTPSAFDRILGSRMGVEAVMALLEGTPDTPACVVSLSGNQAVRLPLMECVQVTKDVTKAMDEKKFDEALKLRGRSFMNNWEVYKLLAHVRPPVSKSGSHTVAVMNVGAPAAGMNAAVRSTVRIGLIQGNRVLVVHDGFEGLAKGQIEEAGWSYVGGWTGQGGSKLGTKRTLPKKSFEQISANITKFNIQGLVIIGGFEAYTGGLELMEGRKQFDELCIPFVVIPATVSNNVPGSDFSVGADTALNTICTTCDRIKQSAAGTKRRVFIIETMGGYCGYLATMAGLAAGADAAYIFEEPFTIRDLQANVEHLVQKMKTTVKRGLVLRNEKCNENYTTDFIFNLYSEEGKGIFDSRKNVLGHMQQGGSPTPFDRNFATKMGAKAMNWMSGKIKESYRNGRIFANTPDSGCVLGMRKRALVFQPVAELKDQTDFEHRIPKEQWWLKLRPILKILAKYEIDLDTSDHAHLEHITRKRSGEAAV
UniProt Q15154: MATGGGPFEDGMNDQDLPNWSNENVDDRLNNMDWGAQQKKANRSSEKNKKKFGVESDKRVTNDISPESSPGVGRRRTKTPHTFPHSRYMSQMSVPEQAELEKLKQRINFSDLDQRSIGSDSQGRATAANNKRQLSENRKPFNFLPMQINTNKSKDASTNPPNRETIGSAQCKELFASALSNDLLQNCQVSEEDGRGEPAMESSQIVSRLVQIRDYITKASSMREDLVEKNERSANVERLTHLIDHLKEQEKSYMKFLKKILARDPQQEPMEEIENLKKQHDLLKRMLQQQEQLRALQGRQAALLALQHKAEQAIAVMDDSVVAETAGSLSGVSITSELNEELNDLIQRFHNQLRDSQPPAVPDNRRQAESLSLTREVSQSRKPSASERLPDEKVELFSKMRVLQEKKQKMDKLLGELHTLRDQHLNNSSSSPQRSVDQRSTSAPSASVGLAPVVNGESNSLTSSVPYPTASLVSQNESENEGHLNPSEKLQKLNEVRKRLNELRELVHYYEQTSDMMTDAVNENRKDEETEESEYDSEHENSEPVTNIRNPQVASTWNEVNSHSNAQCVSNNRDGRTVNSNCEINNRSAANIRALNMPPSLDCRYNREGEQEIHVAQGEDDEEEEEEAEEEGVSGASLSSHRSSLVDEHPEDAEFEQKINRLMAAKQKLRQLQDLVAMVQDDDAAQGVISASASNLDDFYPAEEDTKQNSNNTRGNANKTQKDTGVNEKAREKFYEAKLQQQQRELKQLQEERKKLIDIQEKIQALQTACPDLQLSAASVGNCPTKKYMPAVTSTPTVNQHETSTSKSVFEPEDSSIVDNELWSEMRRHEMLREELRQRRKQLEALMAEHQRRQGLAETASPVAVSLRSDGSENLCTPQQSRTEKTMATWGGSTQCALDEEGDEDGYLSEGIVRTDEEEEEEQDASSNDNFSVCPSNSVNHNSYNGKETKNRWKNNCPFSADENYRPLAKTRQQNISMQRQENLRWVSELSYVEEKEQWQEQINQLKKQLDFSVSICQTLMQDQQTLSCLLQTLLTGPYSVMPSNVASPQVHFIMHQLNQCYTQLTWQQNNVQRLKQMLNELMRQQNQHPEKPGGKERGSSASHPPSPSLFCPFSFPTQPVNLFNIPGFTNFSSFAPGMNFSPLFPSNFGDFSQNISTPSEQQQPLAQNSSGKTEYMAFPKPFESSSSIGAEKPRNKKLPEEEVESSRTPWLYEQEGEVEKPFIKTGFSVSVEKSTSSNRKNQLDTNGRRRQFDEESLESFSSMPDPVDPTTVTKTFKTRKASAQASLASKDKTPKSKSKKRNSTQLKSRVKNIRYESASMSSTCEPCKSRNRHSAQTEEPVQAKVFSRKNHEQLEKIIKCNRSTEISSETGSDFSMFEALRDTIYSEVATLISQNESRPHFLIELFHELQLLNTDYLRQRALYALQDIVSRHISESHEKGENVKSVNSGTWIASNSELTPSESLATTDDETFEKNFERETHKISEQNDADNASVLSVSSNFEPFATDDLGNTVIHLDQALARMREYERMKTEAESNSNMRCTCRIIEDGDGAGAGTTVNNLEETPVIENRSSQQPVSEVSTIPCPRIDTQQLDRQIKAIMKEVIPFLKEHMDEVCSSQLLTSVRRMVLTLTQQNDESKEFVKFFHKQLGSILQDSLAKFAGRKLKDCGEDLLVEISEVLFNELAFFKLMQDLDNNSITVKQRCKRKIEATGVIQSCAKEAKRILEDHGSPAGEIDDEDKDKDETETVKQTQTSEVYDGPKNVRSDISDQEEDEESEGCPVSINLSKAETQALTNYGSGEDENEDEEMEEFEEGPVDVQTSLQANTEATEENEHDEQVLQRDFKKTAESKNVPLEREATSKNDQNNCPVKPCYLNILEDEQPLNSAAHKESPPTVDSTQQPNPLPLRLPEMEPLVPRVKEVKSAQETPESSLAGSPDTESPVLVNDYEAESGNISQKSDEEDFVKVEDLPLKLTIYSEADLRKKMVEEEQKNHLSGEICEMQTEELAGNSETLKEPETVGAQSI
UniProt Q8N5Y8: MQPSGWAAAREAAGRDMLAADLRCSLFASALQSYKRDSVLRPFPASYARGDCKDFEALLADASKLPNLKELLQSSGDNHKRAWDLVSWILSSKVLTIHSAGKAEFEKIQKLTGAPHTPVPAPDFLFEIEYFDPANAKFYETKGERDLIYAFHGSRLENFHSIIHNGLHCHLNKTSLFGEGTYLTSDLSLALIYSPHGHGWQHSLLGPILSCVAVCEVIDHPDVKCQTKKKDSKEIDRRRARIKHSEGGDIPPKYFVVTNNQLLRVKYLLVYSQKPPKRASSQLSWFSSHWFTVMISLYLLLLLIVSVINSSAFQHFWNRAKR
UniProt Q8WW12: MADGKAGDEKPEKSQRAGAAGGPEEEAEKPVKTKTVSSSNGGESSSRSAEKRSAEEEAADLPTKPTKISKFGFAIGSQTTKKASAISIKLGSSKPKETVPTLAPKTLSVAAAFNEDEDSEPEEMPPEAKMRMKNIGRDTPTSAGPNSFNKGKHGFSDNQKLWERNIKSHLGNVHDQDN
UniProt O00330, whole entry, looked up: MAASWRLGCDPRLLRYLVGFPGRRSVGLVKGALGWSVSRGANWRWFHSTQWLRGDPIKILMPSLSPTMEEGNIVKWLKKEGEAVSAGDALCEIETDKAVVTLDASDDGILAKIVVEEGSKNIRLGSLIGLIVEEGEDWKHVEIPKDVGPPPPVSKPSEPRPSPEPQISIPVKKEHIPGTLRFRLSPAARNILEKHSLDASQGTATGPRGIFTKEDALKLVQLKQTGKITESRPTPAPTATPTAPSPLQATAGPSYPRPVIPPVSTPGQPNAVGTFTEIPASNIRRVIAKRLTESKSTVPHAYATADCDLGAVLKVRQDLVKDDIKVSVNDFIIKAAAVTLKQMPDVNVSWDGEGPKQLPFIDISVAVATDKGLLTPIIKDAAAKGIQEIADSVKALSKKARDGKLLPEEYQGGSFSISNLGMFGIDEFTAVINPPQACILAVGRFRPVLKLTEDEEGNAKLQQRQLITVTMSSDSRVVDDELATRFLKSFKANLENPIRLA
UniProt O75340: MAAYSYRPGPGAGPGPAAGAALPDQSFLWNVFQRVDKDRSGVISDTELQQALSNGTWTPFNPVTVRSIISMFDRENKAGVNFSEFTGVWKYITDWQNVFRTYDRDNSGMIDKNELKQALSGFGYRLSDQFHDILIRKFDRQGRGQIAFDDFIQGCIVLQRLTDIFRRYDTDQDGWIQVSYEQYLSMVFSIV

Some of the results follow.

Compound in this experiment: Cc1sc2c(c1C)C(c1ccc(Cl)cc1)=N[C@@H](CC(=O)OC(C)(C)C)c1nnc(C)n1-2
The experiment is described as follows: log2 fold change, soluble protein after heating vs DMSO (PISA); higher = thermal stabilisation; K562 lysate, 10 uM; active = over 0.2 and 3.5 SD of the protein, either way, in both replicates (recomputed). The method in brief: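 The values are log-two fold changes in thermal stability compared with solvent controls and come from duplicates. They were obtained by TMTpro 16plex LC-MS/MS, with channel sums equalised, on the supernatant after 21,000xg for 90 min. That supernatant came from crude K562 extract at 1 mg/mL protein treated with 10 μM compound for 30 min, heated for 3 min across 48°C-58°C, pooled and brought to 0.5% NP-40 at 4°C.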
Take PGAM1 (UniProt P18669): the log2 fold change is inactive: -0.029. Under PDE12 (UniProt Q6L8Q7) stands inactive: 0.055; under PDK1 (UniProt Q15118), inactive: 0.107; under PCGF5 (UniProt Q86SE9), inactive: 0. Regarding PCYOX1 (UniProt Q9UHG3), the log2 fold change was inactive: 0.022. For PCBD2 (UniProt Q9H0N5) the value was inactive: -0.011; for PDIA5 (UniProt Q14554), inactive: -0.018; for PC (UniProt P11498), inactive: 0.006. Take PFKL isoform 2 (UniProt P17858): the log2 fold change was inactive: -0.014. Under PCBP2 (UniProt F8W0G4) stands inactive: 0.103; under PDS5A (UniProt Q29RF7), inactive: -0.011. On to PCTP (UniProt Q9UKL6), for which the log2 fold change was inactive: -0.061. For PDCD5 (UniProt O14737) the value was inactive: 0.019. For PDIA3 (UniProt H7BZJ3) the value was inactive: -0.009.

As for PFKM isoform 3 (UniProt P08237), the log2 fold change is inactive: 0.007. Turning to PDCD6IP isoform 2 (UniProt Q8WUM4), the log2 fold change is inactive: 0.02. On to PDCD10 (UniProt Q9BUL8), for which the log2 fold change is inactive: -0.042.

As to PCM1 (UniProt Q15154), the log2 fold change is inactive: -0.002. For PDE4DIP isoform 4 (UniProt Q5VU43) the value was inactive: -0.016; for PARP16 isoform 3 (UniProt Q8N5Y8), inactive: 0.059.

For PCYOX1L (UniProt Q8NBM8), the log2 fold change is inactive: 0.001. Under PDE2A (UniProt O00408) stands inactive: 0.039; under PCLAF (UniProt Q15004), inactive: -0.059. For PCNP (UniProt Q8WW12) the value was inactive: -0.014; for PECAM1 (UniProt P16284), inactive: -0.009. As to PEAK1 (UniProt Q9H792), the log2 fold change was inactive: 0.072. Under PBLD (UniProt P30039) stands inactive: -0.048.

For the target PEX19 (UniProt P40855), the log2 fold change was inactive: -0.06. Consider PEF1 (UniProt Q9UBV8), for which the log2 fold change was inactive: 0.048.

Take PFKFB2 (UniProt O60825): the log2 fold change is inactive: -0.001. For PARP9 (UniProt Q8IXQ6) the value was inactive: 0.123; for PCBP2 isoform 8 (UniProt Q15366), inactive: -0.044; for PDHA1 isoform 4 (UniProt P08559), inactive: 0.035. For PET100 (UniProt P0DJ07), the log2 fold change is inactive: 0.06.

In the case of PDHX (UniProt O00330), the log2 fold change is inactive: 0.013. For PDCD6 (UniProt O75340) the value was inactive: 0.014; for PASK (UniProt Q96RG2), inactive: -0.038.
